This passage reports binding results from PMC5650399.

Sequences of proteins named here, by UniProt entry; tags and fusion partners are left off.
UniProt O43524: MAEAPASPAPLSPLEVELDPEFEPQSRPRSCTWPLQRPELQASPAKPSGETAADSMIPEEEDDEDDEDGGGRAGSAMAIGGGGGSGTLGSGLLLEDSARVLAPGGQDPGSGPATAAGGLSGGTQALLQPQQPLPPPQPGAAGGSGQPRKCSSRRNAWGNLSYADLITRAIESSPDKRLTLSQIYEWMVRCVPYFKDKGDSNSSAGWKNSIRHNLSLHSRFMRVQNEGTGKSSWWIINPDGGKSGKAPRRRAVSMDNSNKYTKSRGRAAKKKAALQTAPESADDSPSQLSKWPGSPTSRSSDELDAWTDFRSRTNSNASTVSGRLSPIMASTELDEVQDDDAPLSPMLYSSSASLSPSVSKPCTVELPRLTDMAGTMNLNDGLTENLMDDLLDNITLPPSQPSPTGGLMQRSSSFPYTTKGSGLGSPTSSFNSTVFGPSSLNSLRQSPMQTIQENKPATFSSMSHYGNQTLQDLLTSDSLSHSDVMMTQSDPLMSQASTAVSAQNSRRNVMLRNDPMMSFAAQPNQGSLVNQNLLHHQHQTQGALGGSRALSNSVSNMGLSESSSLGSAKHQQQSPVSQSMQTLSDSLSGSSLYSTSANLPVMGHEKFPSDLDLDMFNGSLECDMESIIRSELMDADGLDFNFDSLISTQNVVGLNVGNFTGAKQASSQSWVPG
UniProt Q13555: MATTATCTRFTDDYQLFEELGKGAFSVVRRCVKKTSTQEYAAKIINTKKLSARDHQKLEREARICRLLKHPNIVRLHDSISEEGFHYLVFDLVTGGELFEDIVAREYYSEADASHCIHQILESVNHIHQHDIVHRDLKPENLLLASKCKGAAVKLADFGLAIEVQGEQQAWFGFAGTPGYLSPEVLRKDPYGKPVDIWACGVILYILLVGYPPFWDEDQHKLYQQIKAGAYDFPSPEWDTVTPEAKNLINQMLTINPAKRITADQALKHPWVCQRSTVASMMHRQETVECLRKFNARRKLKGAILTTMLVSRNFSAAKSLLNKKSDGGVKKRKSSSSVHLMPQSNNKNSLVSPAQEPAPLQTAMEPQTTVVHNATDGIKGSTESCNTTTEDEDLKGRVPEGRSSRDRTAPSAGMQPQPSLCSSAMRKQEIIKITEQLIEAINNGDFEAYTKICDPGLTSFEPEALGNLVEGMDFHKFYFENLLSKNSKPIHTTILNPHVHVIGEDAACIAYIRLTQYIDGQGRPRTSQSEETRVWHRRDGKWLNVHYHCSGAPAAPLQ

The experiment concerns the target full-length FOXO3a-FLAG in Jurkat cells (human) (UniProt O43524). Kind of experiment: co-IP; Jurkat cell lysates (0.5% NP-40, 10 mM NaCl, 10 mM Tris-HCl pH 8.0, 0.3 M sucrose, 3 mM MgCl2) immunoprecipitated with FLAG antibody and protein A magnetic beads overnight at 4 °C, washed with PBST; Western blot of the precipitates. On the technique in general: Immunoblotting shows a protein as a band on a membrane.

Results are given in words; binding and its absence hold for the method and conditions named. Binding seen in cells or lysates may run through a third protein. Some binding calls cover weakened binding; strength is not graded here.

Consider “CaMKIIγ (endogenous, Jurkat) (from UniProt Q13555 1-558) (enzyme)”, for which the binding entry is listed as “binds”.
